Patent US20070190628A1, “Yeast food composition for fuel ethanol production” (priority 2006, published 2007)
Some results were stated once for a whole list of compounds, not compound by compound. At least one compound was matched to its structure with a doubt left.

Tested on: active dry yeast “z”
Experiment: Fermentation of very high gravity corn mash with nutrient supplements (Example 4)
Type: cell-based, Saccharomyces cerevisiae
Conditions: run for 120 hr
Protocol: The effects of the optimized defined urea plus salts-based nutrient supplement, i.e., defined yeast food, developed in Example 3 for corn mash fermentations, were assessed by comparisons of fermentation rates and ethanol production in normal gravity corn mashes and very high gravity corn mashes that were (a) supplemented with 16 mM urea only, or (b) yeast extract, or (c) supplemented with 16 mM urea plus the defined yeast food from Example 3 which in this set of studies, contained 1.6 g/L (NH4)2HPO4, 0.32 g/L (NH4)2SO4, 0.049 g/L MgSO4.7H2O, and 0.273 mg/L ZnSO4.7H2O.
Normal density corn mashes were prepared as described in Example 1 and were determined to contain about 18-20 g dissolved solids per 100 mL mash as determined by density meter analysis. […] The mash thus prepared contained 30-32 g of dissolved solids/100 mL as determined by density meter analysis. […]
Each study was commenced by removing fermentors containing either normal gravity corn mash or very high gravity corn mash from 4° C. storage, connecting them to 30° C. water bath circulators and continually mixing the corn mash contents therein until the temperature of each mash was 30° C. […] Fermentation performance in all treatments was assessed by repeated sampling and analyses of the mashes during the fermentation periods as described in Example 1.

Question: `NC(N)=O` [urea] was tested. Which “time to complete fermentation (disappearance of dissolved solids)” value did it give?
Answer: The value was greater than 120 h.
